# Library screen at single concentrations

The chains behind the UniProt entries cited, without tags or fusion partners.
UniProt P9WNZ1, whole entry: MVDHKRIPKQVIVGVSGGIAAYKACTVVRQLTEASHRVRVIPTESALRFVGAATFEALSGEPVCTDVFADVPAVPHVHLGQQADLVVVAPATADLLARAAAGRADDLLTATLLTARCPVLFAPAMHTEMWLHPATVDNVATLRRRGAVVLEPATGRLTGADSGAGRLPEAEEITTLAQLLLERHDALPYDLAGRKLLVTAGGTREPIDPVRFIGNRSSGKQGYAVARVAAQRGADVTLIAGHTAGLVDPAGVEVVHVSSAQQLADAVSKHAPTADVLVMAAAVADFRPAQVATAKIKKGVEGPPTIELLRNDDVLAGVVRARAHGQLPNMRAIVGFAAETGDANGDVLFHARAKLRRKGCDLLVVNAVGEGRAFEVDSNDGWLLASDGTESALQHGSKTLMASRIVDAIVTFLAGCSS

Measurements from “University of Dundee, Small-Polar-MMV Screening Library” (2021), ChEMBL document CHEMBL3988442.

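Coenzyme A biosynthesis protein CoaBC, Mycobacterium tuberculosis (UniProt P9WNZ1). Enzyme assay of CoaBC with a phosphate dye (Biomol Green) read at 650 nm. Tested at 30 µM. Direction is inferred from only a few compounds that gave an IC50; most scored high, so higher reads as stronger inhibition. Most strong results did not repeat in a second test. Of about 67,000 compounds tested this way, about 40 (0.06%) reached 50% or more in at least one test.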

Each number is a percent effect as filed. The record does not define 0% and 100%; most values in the screen are far below 50% and negative numbers occur (in some assays of this library far below -100). This is an unselected part of the compounds tested.

SMILES,effect
NS(=O)(=O)c1ccc(C(=O)N2CCCC2c2ccccc2)o1 (configuration not stated),3.448%
O=C(CCCOc1ccc(F)cc1)N1CCCC(n2cccn2)C1 (configuration not stated),6.923%
COc1ccc(Cl)cc1Nc1nc(N)c(C(C)=O)s1,2.532%
CN(Cc1noc(C2CC2)n1)C1CCCN(c2cccnn2)C1 (configuration not stated),5.032%
Cc1noc(C)c1CN1C[C@@H](OCC(=O)N(C)C)[C@H]2OCCC[C@H]21,6.721%
CC(C)N1CCC(CC(=O)NCc2cc(O)ncn2)CC1,-1.104%
c1ccc(-c2cnc(CN(Cc3cccnc3)CC3CCCO3)o2)cc1 (configuration not stated),1.139%
CC(=O)N1CC(=O)N(c2cccnc2)CC12CCN(Cc1nccs1)C2 (configuration not stated),8.795%
Cc1cccc(C(=O)NCc2ccc(N3CCCCCC3)nc2)n1,9.288%
Cc1ccc(C(=O)NCCCC2(C3OCCO3)CCOCC2)cc1C,-2.784%
Cc1nc(C(C)C)sc1C(=O)N1CCC(N2CCSCC2)CC1,-1.157%
COCC(=O)N1CCN(C(C)c2ncc(-c3ccccc3)o2)CC1 (configuration not stated),8.407%
CN(Cc1cn2c(n1)CN(C(=O)c1ccc[nH]1)CC2)Cc1ccco1,-10.32%
CCn1ccc(-c2cc(C(=O)O)n3ncc(Br)c3n2)n1,4.027%
COc1ccc(-c2cn3c(n2)CO[C@@H](CNCc2nccn2C)C3)cc1,9.051%
Cc1cc(Nc2ccc(F)cn2)cc(C2CCN(Cc3ncc[nH]3)C2)n1 (configuration not stated),5.936%
O[C@@H]1C[C@@](CNCC2CCCC2)(COc2cccnc2)C[C@@H]1O,-8.168%
CNc1[nH]nc(N)c1NC(=O)c1ccccc1,3.165%
COCc1noc(-c2cc(Cl)c3c(c2)OCO3)n1,4.177%
CCn1ccc2ccnc(CC3CN(C(=O)Cn4ccnc4C)C3)c21,4.429%
Cc1nc(CN2CCCC(Nc3ncnc4ccsc34)C2)no1 (configuration not stated),-2.419%
Cn1ncnc1-c1ccnc(NCc2ccccn2)n1,3.676%
CCc1nnc(C(C)N(C)Cc2c(C)nn(-c3ccccc3)c2C)o1 (configuration not stated),13.94%
CN(C)C(=O)CN1C(=O)CO[C@@H]2CN(c3ccccn3)C[C@H]21,10.86%
CCN(Cc1ccc2c(c1)OCO2)C(=O)c1cccnc1O,2.408%
CC1(c2ccc(Br)cc2)CC(=O)N(CCC#N)C1=O (configuration not stated),-3.929%
CCc1cc(N2CCN(c3ccc(Cl)cn3)CC2)n2nccc2n1,10.77%
c1ccc(CO[C@H]2C[C@@H]3CN(Cc4cccnc4)C[C@@H]3C2)cc1,7.786%
Clc1ccccc1-c1nnc(CSCCN2CCOCC2)o1,1.582%
Cc1ccc(N2CCC3(CC2)COCCN(c2nccs2)C3)nn1,17.93%
CC(C)N(C)S(=O)(=O)N(C)Cc1cnn(Cc2ccccc2)c1,9.524%
Cc1cnc(C(C)(C)NC(=O)NCc2ccc(C#N)cc2F)s1,4.032%
CN1CCC(Oc2ccc(NC(=O)c3ccccc3Br)cc2)CC1,-36.36%
COc1ccc(CN(C)C(=O)CCc2c(C)nc(C)[nH]c2=O)cc1OC,-2.11%
c1cnc(N2CCC3(COCc4cnc(N5CCOCC5)nc43)C2)nc1 (configuration not stated),3.759%
N[C@H]1CN(C(=O)Cc2ccc(Cl)c(Cl)c2)C[C@@H]1C1CC1,5%
Cc1ccc(C(=O)N2CCCCC2CNC(N)=O)cc1F (configuration not stated),3.959%
CN1CCN(CCOc2ccc(NC(=O)c3ccoc3)cc2)CC1,1.401%
Cc1noc2ncnc(NC(CC(C)(C)C)c3cccnc3)c12 (configuration not stated),1.118%
CN(Cc1ccc(CCC(C)(C)O)cc1)Cc1cccnc1,0.7673%
CN(CCCC1CCCO1)S(=O)(=O)NCc1ccccc1 (configuration not stated),0.6494%
N#Cc1cccc(S(=O)(=O)N2CC(CC(=O)O)c3ccccc32)c1 (configuration not stated),0.3764%
CCc1cc(NCc2cc3n(n2)CCCN(S(C)(=O)=O)C3)nc(C)n1,-3.175%
O=C(Nc1cccc(Cn2cccn2)c1)N1CCCC(N2CCCC2)C1 (configuration not stated),4.464%
CN(CCc1cccc2ccccc12)Cc1nc(N)nc(N(C)C)n1,2.166%
O=C(c1ccccc1)N1CCN(CC2CCOc3ccccc3C2)CC1 (configuration not stated),3.426%
N#Cc1cccc(S(=O)(=O)NC(=O)c2csc(-c3ccco3)n2)c1,2.335%
CC1CCCN(C(=O)c2cn(-c3ccc(C(F)(F)F)cn3)nn2)C1 (configuration not stated),3.226%
CCN(CC)c1ncc(Cl)c(C(=O)NC2CCc3nccn3C2)n1 (configuration not stated),5.2%
CO[C@H]1CCN(S(=O)(=O)c2cccs2)[C@H]1Cc1cccnc1,2.538%
CCc1nc(CNC(C)c2cccc(N3CCCC3=O)c2)cs1 (configuration not stated),7.937%
CC1(C)CCC(C(=O)N2CCCO2)c2ccccc21 (configuration not stated),0.4032%
CCn1cc(CN2CCCN(C(=O)CCCn3cncn3)CC2)cn1,1.446%
Cc1ncc(-c2ccnc(NC3CC3)n2)c(-c2cccnc2)n1,0.3614%
O=C(COc1ccc(F)cc1)N1CCO[C@H]2[C@@H](OCC3CC3)CC[C@@H]21,1.235%
Cc1nccc(N[C@H]2CN(C(=O)CCN3CCCC3=O)C[C@@H]2C(C)C)n1,1.145%
OC(CNCCn1cccn1)c1ccc(Br)cc1 (configuration not stated),1.044%
CN(C)c1nccnc1C1CCCN(c2cnccn2)C1 (configuration not stated),0.7177%
COc1ccc(CCNC2CCCN(Cc3noc(C)n3)C2)cc1 (configuration not stated),2.625%
CN(C)Cc1cc(C2CCN(C(=O)C3CC34CCC4)CC2)nn1C (configuration not stated),-1.826%
CCc1nsc(N2CCc3sccc3C2)n1,1.071%
COCc1nn(C(C)C)c2c1CCN(Cc1ccccn1)C2,-1.603%
c1cnc2[nH]c(C3CCNCC3)c(CN3CCOCC3)c2c1,6.618%

For reference, 3 entries once more:

| SMILES | effect |
|---|---|
| `CN(Cc1cn2c(n1)CN(C(=O)c1ccc[nH]1)CC2)Cc1ccco1` | -10.32% |
| `NS(=O)(=O)c1ccc(C(=O)N2CCCC2c2ccccc2)o1` (configuration not stated) | 3.448% |
| `Cn1ncnc1-c1ccnc(NCc2ccccn2)n1` | 3.676% |